The source of these data is article PMC9074688.

Sequences of proteins named here, by UniProt entry; tags and fusion partners are left off.
UniProt Q04207: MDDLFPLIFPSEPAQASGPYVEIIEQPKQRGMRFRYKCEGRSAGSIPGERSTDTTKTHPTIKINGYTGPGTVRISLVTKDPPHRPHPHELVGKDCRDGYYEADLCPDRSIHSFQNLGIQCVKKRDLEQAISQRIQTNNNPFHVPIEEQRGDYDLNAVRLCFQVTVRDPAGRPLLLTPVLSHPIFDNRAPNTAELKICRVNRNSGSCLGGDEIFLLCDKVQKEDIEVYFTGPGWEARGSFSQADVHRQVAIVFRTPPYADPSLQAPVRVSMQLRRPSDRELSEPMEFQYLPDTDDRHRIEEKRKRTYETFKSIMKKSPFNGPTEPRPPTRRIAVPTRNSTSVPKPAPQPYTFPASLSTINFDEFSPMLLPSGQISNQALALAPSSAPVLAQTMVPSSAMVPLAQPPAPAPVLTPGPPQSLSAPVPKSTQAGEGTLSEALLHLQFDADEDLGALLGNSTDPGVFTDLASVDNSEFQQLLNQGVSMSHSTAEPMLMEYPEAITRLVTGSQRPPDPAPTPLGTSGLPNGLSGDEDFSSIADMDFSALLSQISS
UniProt Q06831: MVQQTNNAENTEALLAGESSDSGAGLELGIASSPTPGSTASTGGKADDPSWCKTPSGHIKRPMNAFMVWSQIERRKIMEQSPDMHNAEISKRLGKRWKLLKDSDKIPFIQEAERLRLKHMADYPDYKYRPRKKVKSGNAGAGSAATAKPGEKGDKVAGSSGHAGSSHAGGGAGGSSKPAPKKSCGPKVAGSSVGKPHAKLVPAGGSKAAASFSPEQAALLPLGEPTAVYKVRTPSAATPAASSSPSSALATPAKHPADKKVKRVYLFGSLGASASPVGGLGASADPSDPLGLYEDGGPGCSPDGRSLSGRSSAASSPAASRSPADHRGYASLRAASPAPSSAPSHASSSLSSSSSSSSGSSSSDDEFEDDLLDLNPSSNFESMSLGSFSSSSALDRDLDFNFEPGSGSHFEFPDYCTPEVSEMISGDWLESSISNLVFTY

Results are given in words; binding and its absence hold for the method and conditions named. Binding seen in cells or lysates may run through a third protein. Some binding calls cover weakened binding; strength is not graded here.

The target of this experiment is RELA/p65 (mouse (endogenous in mouse FLS)) (UniProt Q04207). Nature of the experiment: co-IP; nuclear extracts of wildtype mouse FLS treated with or without TNF (10 ng/mL, 16 h); p65 antibody or rabbit non-immune IgG on Dynabeads, overnight; western blot for SOX4, p65, HDAC1.

On to SOX4 (from UniProt Q06831 1-440), for which the binding result is on record as “binds”.
